# Laboratory results taken from PubChem BioAssay AID588590 (National Center for Advancing Translational Sciences (NCATS), 2011).
# Chains of the proteins cited; added tags and fusions are not shown. Lines headed by an entry give the natural chain unless they say otherwise; changes in a name come on top.
# UniProt Q9UNA4: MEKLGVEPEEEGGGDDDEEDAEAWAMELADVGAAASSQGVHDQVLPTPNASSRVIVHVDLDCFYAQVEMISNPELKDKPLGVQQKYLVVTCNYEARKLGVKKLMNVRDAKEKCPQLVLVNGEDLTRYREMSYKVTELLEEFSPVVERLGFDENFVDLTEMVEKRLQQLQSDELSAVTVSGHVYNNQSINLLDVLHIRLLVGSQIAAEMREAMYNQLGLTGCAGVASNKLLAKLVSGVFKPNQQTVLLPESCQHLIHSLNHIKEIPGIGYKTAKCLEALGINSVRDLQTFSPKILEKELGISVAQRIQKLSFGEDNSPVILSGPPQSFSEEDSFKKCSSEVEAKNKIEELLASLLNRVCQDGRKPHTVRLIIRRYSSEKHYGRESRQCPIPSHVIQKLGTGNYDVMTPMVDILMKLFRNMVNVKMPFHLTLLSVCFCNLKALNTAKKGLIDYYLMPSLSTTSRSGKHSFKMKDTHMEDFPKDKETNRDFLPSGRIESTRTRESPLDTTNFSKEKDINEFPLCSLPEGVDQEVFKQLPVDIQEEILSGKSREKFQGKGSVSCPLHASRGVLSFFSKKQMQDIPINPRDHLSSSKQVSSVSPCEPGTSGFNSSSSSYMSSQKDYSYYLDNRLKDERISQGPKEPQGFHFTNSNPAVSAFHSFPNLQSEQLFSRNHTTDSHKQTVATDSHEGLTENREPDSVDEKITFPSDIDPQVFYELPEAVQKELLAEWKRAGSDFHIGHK
# In all, about 390,000 compounds went through this assay and about 4,000 (1%) were called active. Inconclusive results, whose numbers are uncertain, are shown with a selection of clear calls. The call rests on the fitted dose curve; in most records, active means well fitted inhibition curve with a large enough effect; inconclusive means small, poorly fitted or top-dose-only effect, or another doubt; inactive means no such curve, though single readings can be large or run the other way. Potencies of inconclusive entries are doubtful fits and often do not repeat.
# Target: DNA polymerase iota (Homo sapiens) (UniProt Q9UNA4)
# Experiment: qHTS for Inhibitors of Polymerase Iota
# Settings: Pol iota fluorescent replication assay, 10 min; series mostly up to 115 µM; activity, negative = inhibition: at the top concentration
# Procedure, shortened: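 Pol iota at 10 nM preincubated 15 min with compounds at room temperature; reaction started with fluorescent substrate, 50 nM final. Fluorescence read kinetically at 0 and 10 min; buffer-only wells as negative control.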
# Potency means the concentration at half of the fitted maximal effect.
Compound,Potency,"activity, negative = inhibition"
COc1ccc(N(CC(=O)Nc2nccs2)S(=O)(=O)c2c(C)nn(C)c2C)cc1,"inconclusive: 8.91 µM [inhibitor, partial curve, poor fit]",
CC(=O)c1cc(C)ccc1OC(=O)c1ccncc1,"inconclusive: 22.4 µM [inhibitor, full curve, poor fit]",
S=c1[nH]nc(COc2ccccc2)n1/N=C/c1ccc(Cl)c(Cl)c1,"inconclusive: 89.1 µM [inhibitor, single point]",
CC(C)C(=O)N1CCN(c2ccccc2NC(=O)c2ccco2)CC1,"inconclusive: 100 µM [inhibitor, partial curve, poor fit]",
COc1cccc(NC(=O)Nc2nnc(Cc3ccccc3F)s2)c1,"inconclusive: 70.8 µM [inhibitor, single point]",
COC(=O)[C@]1(Cc2ccccc2)N[C@H](c2ccc(-c3cccc(Cl)c3)cc2)[C@@H]2C(=O)N(C)C(=O)[C@@H]21,"inconclusive: 7.94 µM [inhibitor, full curve, poor fit]",
Cn1ccc(-c2ccccc2)n1,,inactive: 35.1%
COc1ccc(N(C(C)C(=O)NCc2ccco2)S(C)(=O)=O)cc1 (centres undefined),"inconclusive: 39.8 µM [inhibitor, single point]",
CCC/C(C#Cc1ccsc1)=C1/c2ccccc2C(=O)N1c1ccccc1,"inconclusive: 11.2 µM [inhibitor, partial curve, poor fit]",
COc1ccc(N2CCN(Cc3nc4scc(-c5ccccc5)c4c(=O)[nH]3)CC2)cc1,"inconclusive: 0.891 µM [inhibitor, partial curve, poor fit]",
COc1cc(Cl)c(C)cc1NC(=O)c1cc2ccc3cccnc3c2[nH]1,"inconclusive: 89.1 µM [inhibitor, single point]",
Cc1ccc(C)c(S(=O)(=O)Nc2nc3ccc(S(N)(=O)=O)cc3s2)c1,"inconclusive: 35.5 µM [inhibitor, partial curve, poor fit]",
COc1cc2[nH]c(=O)n(Cc3ccc(C(=O)NCc4ccccc4)cc3)c(=O)c2cc1OC,"inconclusive: 79.4 µM [inhibitor, single point]",
O=C(OCC(=O)N1CCN(C(=O)c2ccco2)CC1)c1ccccc1O,"inconclusive: 35.5 µM [inhibitor, single point]",
Cc1nc(N2CCCC2)c2c(C(=O)Nc3cccc(Cl)c3C)c(C)oc2n1,,inactive: -2.76%
O=C(O)CN1C(=O)/C(=C\c2cccc(OCc3ccccc3F)c2)SC1=S,"inconclusive: 31.6 µM [inhibitor, single point]",
O=C(Oc1cccc2c(O)cccc12)c1ccco1,"inconclusive: 22.4 µM [inhibitor, partial curve, poor fit]",
Cc1ccccc1C(=O)c1cccn1CC(=O)O,"inconclusive: 44.7 µM [inhibitor, partial curve, poor fit]",
Cc1cc(=O)c2c(C)ccc(C)c2[nH]1,,inactive: 12%
CCCOc1cccc(C(=O)N/N=C/c2ccoc2)c1,"inconclusive: 79.4 µM [inhibitor, partial curve, poor fit]",
O=c1c(-c2ccc(Br)cc2)coc2c(CN3CCCCC3)c(O)ccc12,,inactive: -5.13%
Cc1ccc(CNC(=O)c2ccc(N3CCC4(CC3)CC(c3cccc(Br)c3)=NO4)c(NC(=O)c3c(Cl)cccc3Cl)c2)cc1,"inconclusive: 22.4 µM [inhibitor, single point]",

# Taken from the entries so far, 3 compounds:
Compound,Potency,"activity, negative = inhibition"
Cc1cc(=O)c2c(C)ccc(C)c2[nH]1,,inactive: 12%
CCCOc1cccc(C(=O)N/N=C/c2ccoc2)c1,"inconclusive: 79.4 µM [inhibitor, partial curve, poor fit]",
O=c1c(-c2ccc(Br)cc2)coc2c(CN3CCCCC3)c(O)ccc12,,inactive: -5.13%

# Additional results.

Compound,Potency,"activity, negative = inhibition"
C=C(CO)C1Cc2cc(C(C)=O)ccc2O1 (centres undefined),"inconclusive: 28.2 µM [inhibitor, single point]",
COc1ccccc1Nc1nc(-c2sc(NC(=O)c3ccco3)nc2C)cs1,"inconclusive: 1.58 µM [inhibitor, full curve, poor fit]",
Cc1cccc(OCC(=O)Nc2ccc(O)c(-c3nc4ccccc4o3)c2)c1,"inconclusive: 100 µM [inhibitor, single point]",
COC(=O)/C(=C(O)\C=C\c1ccccc1[N+](=O)[O-])c1nc2ccccc2[nH]1,"inconclusive: 22.4 µM [inhibitor, partial curve, poor fit]",
CC1=C(c2ccc(C)c(C)c2)S(=O)(=O)N=C1N1CCC(C(=O)NCCc2ccc(Cl)cc2)CC1,"inconclusive: 79.4 µM [inhibitor, partial curve]",
COc1ccc(/C=N/NC(=O)c2cc(-c3ccc4c(c3)OCO4)n[nH]2)cc1OC,"inconclusive: 112 µM [inhibitor, partial curve, poor fit]",
CC(=O)Nc1ccc(S(=O)(=O)Nc2ccc3c(c2)CCC3)cc1,,inactive: 23.2%
Cc1ccc(C)c(SCC(=O)OCC(=O)Nc2ncc(C(F)(F)F)cc2Cl)c1,"inconclusive: 35.5 µM [inhibitor, single point]",
C[C@]12CC[C@@H]3c4ccc(O)cc4CC[C@H]3[C@@H]1CCC2=O,"inconclusive: 15.8 µM [inhibitor, partial curve, poor fit]",
CCn1c(C)cc(C(=O)CSc2nnnn2C2CCCC2)c1C,,inactive: -7.38%
CCCCOC(=O)CSc1nnc(-c2ccccc2)o1,,inactive: 35.2%
Cc1ccc(S(=O)(=O)Cc2ccc(C(=O)N3CCN(c4ccc(F)cc4)CC3)o2)cc1,"inconclusive: 25.1 µM [inhibitor, partial curve, poor fit]",
COc1cc(OC)c(NC(=O)CCCn2nc(C)c3sc4ccccc4c3c2=O)cc1Cl,"inconclusive: 15.8 µM [inhibitor, partial curve, poor fit]",
C=CCOc1ccc(/C=N/NC(C)=O)cc1OCC,"inconclusive: 79.4 µM [inhibitor, single point]",
N#Cc1c(N2CCOCC2)nsc1-c1ccc(C(F)(F)F)cc1,"inconclusive: 79.4 µM [inhibitor, partial curve, poor fit]",
O=C(c1cnccn1)N1CCc2ccccc21,"inconclusive: 22.4 µM [inhibitor, full curve, poor fit]",
Nc1[nH]c(=S)[nH]c(=O)c1N=O,,inactive: 4.1%
CCOc1ccc(NC(=O)Cn2c(=O)n(CCCCC(=O)NCc3ccc4c(c3)OCO4)c(=O)c3ccccc32)cc1,"inconclusive: 89.1 µM [inhibitor, single point]",
CC(=O)c1ccc(-c2c(C3C4C=CCC(C)C4C(=O)N3Cc3ccccc3)ccc3ccccc23)cc1 (centres undefined),,inactive: 5.79%
Nc1c(Cl)cc(C2=NCCn3nc4ccccc4c32)cc1Cl,"inconclusive: 39.8 µM [inhibitor, partial curve, poor fit]",
COc1ccc(-c2cc(C(=O)Nc3cc(OC)c(OC)c(OC)c3)no2)cc1OC,,inactive: -13%
Cc1[nH]n(-c2ncc(-c3ccccc3)s2)c(=O)c1C(c1ccc(Br)cc1)C(C#N)C#N (centres undefined),"inconclusive: 10 µM [inhibitor, partial curve, poor fit]",

Compound,Potency,"activity, negative = inhibition"
COc1ccc(-c2cccc(NS(=O)(=O)c3cc([N+](=O)[O-])ccc3Cl)c2)nn1,"inconclusive: 25.1 µM [inhibitor, full curve]",
COC(C(=O)NNS(=O)(=O)c1ccccc1[N+](=O)[O-])c1ccccc1 (centres undefined),,inactive: -17.9%
CC(C)(C)c1ccc(C(=O)/C=C2\NC(=O)CS2)cc1,"inconclusive: 79.4 µM [inhibitor, single point]",
O=C(c1cccc(S(=O)(=O)N2CCOCC2)c1)N1CCN(c2ccccc2)CC1,,inactive: 18%
Nc1ccc(N2CCCCC2)c(S(=O)(=O)Nc2ccc(Cl)cc2)c1,"inconclusive: 1.41 µM [inhibitor, full curve]",
N#C/C(=C\c1ccc(O)c([N+](=O)[O-])c1)c1nc2ccccc2s1,"inconclusive: 28.2 µM [inhibitor, partial curve]",
O=C(CSc1ccc2nnc(-c3ccccn3)n2n1)NCc1ccco1,"inconclusive: 35.5 µM [inhibitor, partial curve]",
CCOc1c(O)ccc(/C=C2\SC(=S)NC2=O)c1[N+](=O)[O-],active: 12.6 µM,
C[C@H](NS(=O)(=O)c1ccc(Cl)c(Cl)c1)C(=O)OCc1cc(=O)n2cc(Br)ccc2n1,"inconclusive: 50.1 µM [inhibitor, partial curve]",
Cc1cc(C)n2nc(SCc3c(F)cccc3Cl)nc2n1,"inconclusive: 3.55 µM [inhibitor, single point]",
COc1ccc(-c2c(-c3ccccc3)c(C(=O)C(=O)NCCCN(C)C)n3ccc4cc(OC)c(OC)cc4c23)cc1OC,,inactive: 102%
COc1ccc(N2CCN(S(=O)(=O)c3ccc(-c4cnc(C5CC5)o4)cc3)CC2)cc1,"inconclusive: 100 µM [inhibitor, partial curve, poor fit]",
O=C(NCCc1ccc(F)cc1)C1CCCO1 (centres undefined),,inactive: 33.4%
CCc1ccc(C(O)(CC(C)C)C(CN2CCOCC2)c2ccccc2)cc1 (centres undefined),"inconclusive: 35.5 µM [inhibitor, partial curve, poor fit]",
COc1ccccc1-c1nn2c(=O)cc(CN3CCN(C(=O)/C=C/c4ccccc4)CC3)nc2s1,"inconclusive: 89.1 µM [inhibitor, single point]",
CCOC(=O)N/N=C/c1cn(CCCOc2ccc(C)cc2)c2ccccc12,"inconclusive: 89.1 µM [inhibitor, single point]",
Cc1ccc(NC(=O)c2c(NC(=O)c3ccccc3Cl)sc3c2CCC3)cc1,,inactive: -112%
COc1cc(C(=O)N(Cc2ccccn2)CC2CCCO2)cc(OC)c1OC (centres undefined),"inconclusive: 12.6 µM [inhibitor, partial curve, poor fit]",
COc1ccccc1CNc1nc2c(S(=O)(=O)c3ccccc3)nnn2c2ccc(Cl)cc12,,inactive: 4.56%
Cc1cccc(SCc2noc(C(=O)NCC3CCCO3)c2C(=O)O)c1 (centres undefined),"inconclusive: 10 µM [inhibitor, partial curve, poor fit]",
